# Measurements from PubChem BioAssay AID504467 (National Center for Advancing Translational Sciences (NCATS), 2011).
# Among all 330,000 compounds or so, about 7,700 (2.3%) were called active. This list was built around the results that the source calls inconclusive (neither active nor inactive); the mix of calls is not that of the screen. The call rests on the fitted dose curve; in most records, active means well fitted inhibition curve with a large enough effect; inconclusive means small, poorly fitted or top-dose-only effect, or effect the other way; inactive means flat fitted curve, though single readings scatter. Potencies of inconclusive entries are doubtful fits and often do not repeat.
# Assay: qHTS screen for small molecules that inhibit ELG1-dependent DNA repair in human embryonic kidney (HEK293T) cells expressing luciferase-tagged ELG1; further: nearly all actives have a fitted effect of over 55% in size
# Conditions: HEK293T ELG1-luciferase reporter, luminescence, 16 h, DNA damage induced by 5-fluorouridine; activity change, negative = inhibition: at 46.1 µM (top of the series)
# Procedure, shortened: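 Quantitative HTS, concentration-response format. 2,000 cells/well co-treated with 5-fluorouridine and compound, 16 hr in 5% CO2 at 37 °C; ONE-Glo luminescence read after 30 min.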
# On the % scale 0 is the no-effect control and ±100 the full control effect; potency means the concentration at half of the fitted maximal effect.
Structure (SMILES),"activity change, negative = inhibition",Potency
COc1ccc(S(=O)(=O)N(C)C[C@H]2Oc3c(NC(=O)c4ccncc4)cccc3C(=O)N([C@H](C)CO)C[C@@H]2C)cc1,inactive: 0.0168%,–
COc1ccc(-c2csc(NC(=O)CS(=O)(=O)c3ccccc3)n2)cc1,–,"inconclusive: 8.2 µM [inhibitor, partial curve]"
CCN(CC)C(=O)Cn1cc(S(=O)(=O)CC(=O)NCCc2ccccc2)c2ccccc21,inactive: -13.8%,–
CSCCC(NC(=O)c1cccc(C)c1)C(=O)O (stereo unspecified),–,"inconclusive: 9.2 µM [activator, partial curve, poor fit]"
Cc1ccc(S(=O)(=O)N2CCN(c3ccc([N+](=O)[O-])c(NCCN4CCOCC4)c3)CC2)cc1,–,"inconclusive: 18.4 µM [inhibitor, partial curve, poor fit]"
O=C(COc1ccc(Cl)cc1Cl)N/N=C/c1ccc(OC2OC(CO)C(O)C(O)C2O)cc1 (stereo unspecified),–,"inconclusive: 16.4 µM [inhibitor, single point]"
O=c1nccc(N/N=C/c2cccc(O)c2)[nH]1,–,"inconclusive: 18.3 µM [activator, single point]"
Cc1nn(CCO)c(N)c1C1(O)C(=O)Nc2c(Cl)cc(Cl)cc21 (stereo unspecified),inactive: -10.3%,–
COc1cccc(NS(=O)(=O)c2ccc3c(c2)N(C(C)=O)CCO3)c1,inactive: -9.8%,–
COc1ccc(C2=CC(=O)C[C@H](c3ccc(OC)c(OC)c3)C2)cn1,–,"inconclusive: 10.3 µM [inhibitor, partial curve]"
O=C(NCCO)c1ccc(Cl)c(Cl)c1,inactive: 18.3%,–
CC(=O)Nc1ccc(OC/C=C(\C)Cl)cc1,–,"inconclusive: 20.6 µM [activator, partial curve]"
O=C(CNc1cc(S(=O)(=O)N2CCOCC2)ccc1N1CCCC1)N1CCc2ccccc21,–,"inconclusive: 16.4 µM [inhibitor, partial curve]"
OC(COCc1ccccc1)CN1CCc2ccccc2C1 (stereo unspecified),–,"inconclusive: 18.4 µM [activator, partial curve, poor fit]"
Cc1nc(N2CCOCC2)c2cc(-c3ccccc3)sc2n1,–,"inconclusive: 29.1 µM [inhibitor, single point]"
CCCc1nc(-c2ccc(-c3ccc(F)cc3)cc2)no1,–,"inconclusive: 18.4 µM [activator, partial curve]"
COc1cc(/C=N/NC(=S)NCc2ccccc2)ccc1OCC#N,–,"inconclusive: 18.4 µM [inhibitor, partial curve, poor fit]"
Cc1cc(C(=O)CSc2nc3ccccc3o2)c(C)n1CC1CCCO1 (stereo unspecified),–,"inconclusive: 2.59 µM [activator, full curve]"
COc1ccc(-c2ccnc(-c3ccncc3)n2)cc1,inactive: 7.82%,–
CC(=O)c1ccc(OCc2cc(C(=O)NC(C)c3cnn(C)c3)no2)cc1 (stereo unspecified),–,"inconclusive: 14.6 µM [activator, partial curve]"
COc1ccc(OC)c(C(=O)Cn2cnc3ccccc3c2=O)c1,inactive: -11.7%,–
COc1cc(C(=O)NC(C)Cc2ccccn2)ccc1OC1CCN(C(C)=O)CC1 (stereo unspecified),inactive: -6.24%,–
CCN1CCN(c2ccc(S(=O)(=O)N3CCOCC3)cc2NC(=O)c2sccc2C)CC1,inactive: 2.12%,–
O=S(=O)(Nc1cccc(-c2cn3cccnc3n2)c1)c1ccc(F)cc1,inactive: -3.13%,–

# Single records (already shown). Values in the order: activity change, negative = inhibition | Potency
# CCN(CC)C(=O)Cn1cc(S(=O)(=O)CC(=O)NCCc2ccccc2)c2ccccc21 in the list: inactive: -13.8% | –
# CSCCC(NC(=O)c1cccc(C)c1)C(=O)O (stereo unspecified) in the list: – | inconclusive: 9.2 µM [activator, partial curve, poor fit]
# CC(=O)Nc1ccc(OC/C=C(\C)Cl)cc1 in the list: – | inconclusive: 20.6 µM [activator, partial curve]

# Going on with the list:

Structure (SMILES),"activity change, negative = inhibition",Potency
N#Cc1cccc(NC(=O)C2CCCN(C(=O)c3ccc(Cl)cc3)C2)c1 (stereo unspecified),inactive: -29.3%,–
Clc1ccc2oc(-c3cccnc3NCc3ccccc3)nc2c1,inactive: -10.4%,–
Cc1ccc2nc(SC(C)C(=O)N3CCCCC3)[nH]c2c1 (stereo unspecified),–,"inconclusive: 20.6 µM [activator, partial curve]"
Cc1cc(C)n(-c2ccc(C(=O)OCc3ccccc3)cc2)n1,–,"inconclusive: 13 µM [activator, partial curve]"
ON=C1c2cc(OCCN3CCCCC3)ccc2-c2ccc(OCCN3CCCCC3)cc21,inactive: 4.6%,–
Nc1nc(C23CC4CC(CC(C4)C2)C3)[nH]c(=O)n1,inactive: 14.8%,–
CCn1c(COc2ccccc2)nnc1SCC(=O)Nc1cc(C)ccc1OC,–,"inconclusive: 23.1 µM [inhibitor, single point]"
COc1ccc(S(=O)(=O)N2CCCCC2)cc1NCC(=O)Nc1ccc(C)cc1,inactive: -16.1%,–
CCc1ccc(N(CC(=O)NCc2cccnc2)S(=O)(=O)c2ccccc2)cc1,–,"inconclusive: 9.2 µM [activator, partial curve]"
CC(=O)Nc1cc(C)c(S(C)(=O)=O)c(C)c1,inactive: 5.2%,–
Cc1ccn2cc(C(=O)NC3CCN(Cc4ccccc4)CC3)nc2c1,–,active: 20.6 µM
CCN(CC)C(=O)[C@H]1CC(CC(=O)NCc2ccc(OC)c(OC)c2)C(=O)N2CCc3c([nH]c4ccc(OC)cc34)[C@]12C (stereo partly specified),inactive: -1.68%,–
COC(=O)c1ccc(CN2CCCC(C(=O)Nc3ccc(-c4ccn[nH]4)cc3)C2)cc1 (stereo unspecified),–,"inconclusive: 29.1 µM [inhibitor, partial curve, poor fit]"
O=C(Nc1cc(C(=O)N2CCN(c3ccccc3)CC2)ccc1Cl)c1cccs1,–,"inconclusive: 29.1 µM [inhibitor, single point]"
COc1ccc(C(=O)Nc2cc(-c3ccccc3)nn2-c2ccccc2F)cc1,–,"inconclusive: 8.2 µM [inhibitor, partial curve]"
COc1ccc(OCc2cc(C(=O)NCC3CCCCO3)no2)c(Cl)c1 (stereo unspecified),–,"inconclusive: 14.6 µM [activator, partial curve]"
CC(C)Nc1nnc(SCC(=O)Nc2ccc3c(c2)C(=O)c2ccccc2C3=O)s1,–,"inconclusive: 29.1 µM [inhibitor, single point]"
COc1cccc(C2CC(c3ccc(Br)cc3)=NN2C(=O)c2ccncc2)c1OC (stereo unspecified),–,"inconclusive: 29.1 µM [inhibitor, single point]"
Cc1cc(NC(=O)c2cccnc2Cl)ccc1NC(=O)c1cc2ccccc2o1,–,"inconclusive: 14.6 µM [inhibitor, partial curve]"
COc1ccc(S(=O)(=O)NCc2ccc(F)cc2)cc1OC,inactive: 14.4%,–
CCC(C)c1ccc(NC(=S)N2CCCC2)cc1 (stereo unspecified),–,"inconclusive: 14.6 µM [activator, partial curve]"
N#C/C(=C\c1ccc(F)cc1F)S(=O)(=O)c1ccccn1,inactive: 12.2%,–
O=C(COC(=O)c1ccc2ccccc2n1)Nc1ccccc1Br,–,"inconclusive: 29.1 µM [activator, partial curve, poor fit]"
COc1ccccc1NC(=O)c1nn(-c2ccccc2)ccc1=O,inactive: -12.5%,–

Structure (SMILES),"activity change, negative = inhibition",Potency
CC(=O)N1CCOc2ccc(S(=O)(=O)NCC3CCC(C(=O)Nc4ccc(C)cn4)CC3)cc21 (stereo unspecified),–,active: 5.17 µM
CC(C)C1CC(c2ccccc2)(C(CN)CO)CCO1 (stereo unspecified),inactive: -2.39%,–
CCOc1ccccc1N1CCN(c2nc3ccccc3nc2C(C#N)C(=O)OC)CC1 (stereo unspecified),inactive: -20.3%,–
O=C(NCCc1ccccc1)C1CCN(C(=O)c2sccc2-n2cccc2)CC1,inactive: 4.79%,–
O=C(CCC(=O)N1CCN(c2ccccn2)CC1)c1cccs1,–,"inconclusive: 14.6 µM [activator, partial curve]"
CCn1nc(NC(=O)COC)c2cc3cccc(C)c3nc21,inactive: -18.1%,–
O=C(Cn1c(-c2ccccc2)c[n+]2ccsc12)c1ccc(Br)cc1,–,"inconclusive: 11.6 µM [inhibitor, partial curve, poor fit]"
COc1ccc(C(=O)C2CCN(C(=S)Nc3ccc(F)cc3)CC2)cc1,–,"inconclusive: 20.6 µM [inhibitor, single point]"
O=C(c1ccc(-c2ccccc2)cc1)N1CCN(C(=O)c2ccco2)CC1,–,"inconclusive: 29.1 µM [inhibitor, single point]"
O=C(Nc1ccc(Cl)cc1)OCCn1nnnc1C(c1ccccc1Cl)N1CCOCC1 (stereo unspecified),inactive: 17.6%,–
O=C(NCCC1=CCCCC1)c1ccc(-n2cncn2)c([N+](=O)[O-])c1,inactive: 11.2%,–
O=C1OCCN1C(=O)[C@H]1[C@H](c2ccc(F)cc2)C(c2cccc(Cl)c2)=NN1c1ccc(Br)cc1,inactive: -4.44%,–
COc1ccc([C@H]2CC(=O)C=C(c3ccc(CO)cc3)C2)cc1,–,"inconclusive: 0.58 µM [inhibitor, single point]"
Cc1cccc(N2CCN(C(=O)CCCSc3nc4ccccc4[nH]3)CC2)c1C,–,"inconclusive: 14.6 µM [inhibitor, partial curve]"
C/C(=N/NC(=O)c1cc(-c2cccc([N+](=O)[O-])c2)n[nH]1)c1ccc(Cl)cc1,–,"inconclusive: 20.6 µM [activator, single point]"
N#CCSc1ccc2nc(-c3ccccc3)cn2n1,–,"inconclusive: 20.6 µM [activator, partial curve]"
COc1ccc(C2CC(c3cccs3)=NN2S(C)(=O)=O)cc1 (stereo unspecified),–,"inconclusive: 18.3 µM [activator, partial curve]"
COc1ccccc1N1CCN(C(=O)CCCn2nc(C)c([N+](=O)[O-])c2C)CC1,–,"inconclusive: 29.1 µM [inhibitor, single point]"
Oc1ccc2ccccc2c1/C=N/Nc1ccccc1,–,"inconclusive: 9.2 µM [activator, partial curve]"
CC1(C)C(=O)Nc2ccccc2N1C(=O)COc1ncnc2c(Cl)cc(Cl)cc12,–,"inconclusive: 23.1 µM [inhibitor, single point]"
Cc1cc(C)cc(NC(=O)NCc2c(-c3ccccc3)noc2C)c1,–,"inconclusive: 29.1 µM [inhibitor, single point]"
C=C(C)CSc1nc2sc3c(c2c(=O)n1C1CCCCC1)CCN(C)C3,–,"inconclusive: 16.4 µM [inhibitor, partial curve]"
COC(=O)/C(=C/c1cccc([N+](=O)[O-])c1)NC(=O)c1ccc(OC)cc1,–,"inconclusive: 13 µM [activator, partial curve]"
